This assay has as its target cMyc-tagged wild-type Foxo1 (WTFoxo1) (UniProt Q9R1E0). Put plainly: co-IP; HEK293 cells co-transfected with cMyc-tagged WTFoxo1 or CNFoxo1 and FLAG-tagged Zfp238, cultured in the presence of serum, harvested 48 h after transfection; reciprocal: IP anti-FLAG with blot anti-cMyc, and IP anti-cMyc with blot anti-FLAG; normal mouse IgG as control.

Protein sequences, listed by entry. Tags and fused reporters are not part of them.
UniProt Q9R1E0: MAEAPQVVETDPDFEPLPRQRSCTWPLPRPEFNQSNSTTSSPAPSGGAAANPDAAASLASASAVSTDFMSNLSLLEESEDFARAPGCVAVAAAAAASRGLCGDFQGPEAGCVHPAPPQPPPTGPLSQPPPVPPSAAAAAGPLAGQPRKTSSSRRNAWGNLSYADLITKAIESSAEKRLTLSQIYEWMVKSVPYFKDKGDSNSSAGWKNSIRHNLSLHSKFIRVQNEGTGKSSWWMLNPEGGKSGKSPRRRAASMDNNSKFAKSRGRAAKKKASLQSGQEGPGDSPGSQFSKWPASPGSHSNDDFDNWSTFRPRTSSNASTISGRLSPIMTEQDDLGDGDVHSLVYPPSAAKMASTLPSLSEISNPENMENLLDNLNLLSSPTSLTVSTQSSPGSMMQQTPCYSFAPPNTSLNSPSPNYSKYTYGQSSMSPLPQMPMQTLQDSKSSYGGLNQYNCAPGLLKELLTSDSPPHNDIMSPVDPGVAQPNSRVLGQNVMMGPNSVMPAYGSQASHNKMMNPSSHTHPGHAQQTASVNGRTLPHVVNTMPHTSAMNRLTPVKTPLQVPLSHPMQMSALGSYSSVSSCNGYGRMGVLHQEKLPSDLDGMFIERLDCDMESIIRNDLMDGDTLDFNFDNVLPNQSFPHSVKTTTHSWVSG
UniProt Q9WUK6: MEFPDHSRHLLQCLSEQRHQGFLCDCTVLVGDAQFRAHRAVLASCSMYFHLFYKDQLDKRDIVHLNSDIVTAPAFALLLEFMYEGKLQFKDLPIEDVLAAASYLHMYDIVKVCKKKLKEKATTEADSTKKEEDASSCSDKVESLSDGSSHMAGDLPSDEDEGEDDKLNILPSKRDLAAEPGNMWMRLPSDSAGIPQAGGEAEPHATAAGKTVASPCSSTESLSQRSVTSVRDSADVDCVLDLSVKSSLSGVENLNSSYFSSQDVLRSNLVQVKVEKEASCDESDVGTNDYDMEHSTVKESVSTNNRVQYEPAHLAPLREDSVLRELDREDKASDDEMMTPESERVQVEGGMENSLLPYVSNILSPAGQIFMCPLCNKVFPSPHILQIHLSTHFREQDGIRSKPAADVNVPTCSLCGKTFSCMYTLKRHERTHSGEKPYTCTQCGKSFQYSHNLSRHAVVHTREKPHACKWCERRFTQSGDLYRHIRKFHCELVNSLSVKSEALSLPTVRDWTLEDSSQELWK

From paper PMC6352565 come the findings set out here.

These are yes or no findings as the source states them, for the method shown. In cells and extracts the contact can be indirect.

Turning to “FLAG-tagged Zfp238 (from UniProt Q9WUK6 1-522)”, the binding entry is listed as “no binding”.
